In publication doi:10.1101/788778:
Results are given in words; binding and its absence hold for the method and conditions named. In cells and extracts the contact can be indirect. Some results given as binding are weak or reduced against the parent protein; the word gives no strength.

Amino acid sequences for entries named in this document (tags omitted). A change or cut given only in a name is not applied to a line headed by its entry.
UniProt Q7Z333: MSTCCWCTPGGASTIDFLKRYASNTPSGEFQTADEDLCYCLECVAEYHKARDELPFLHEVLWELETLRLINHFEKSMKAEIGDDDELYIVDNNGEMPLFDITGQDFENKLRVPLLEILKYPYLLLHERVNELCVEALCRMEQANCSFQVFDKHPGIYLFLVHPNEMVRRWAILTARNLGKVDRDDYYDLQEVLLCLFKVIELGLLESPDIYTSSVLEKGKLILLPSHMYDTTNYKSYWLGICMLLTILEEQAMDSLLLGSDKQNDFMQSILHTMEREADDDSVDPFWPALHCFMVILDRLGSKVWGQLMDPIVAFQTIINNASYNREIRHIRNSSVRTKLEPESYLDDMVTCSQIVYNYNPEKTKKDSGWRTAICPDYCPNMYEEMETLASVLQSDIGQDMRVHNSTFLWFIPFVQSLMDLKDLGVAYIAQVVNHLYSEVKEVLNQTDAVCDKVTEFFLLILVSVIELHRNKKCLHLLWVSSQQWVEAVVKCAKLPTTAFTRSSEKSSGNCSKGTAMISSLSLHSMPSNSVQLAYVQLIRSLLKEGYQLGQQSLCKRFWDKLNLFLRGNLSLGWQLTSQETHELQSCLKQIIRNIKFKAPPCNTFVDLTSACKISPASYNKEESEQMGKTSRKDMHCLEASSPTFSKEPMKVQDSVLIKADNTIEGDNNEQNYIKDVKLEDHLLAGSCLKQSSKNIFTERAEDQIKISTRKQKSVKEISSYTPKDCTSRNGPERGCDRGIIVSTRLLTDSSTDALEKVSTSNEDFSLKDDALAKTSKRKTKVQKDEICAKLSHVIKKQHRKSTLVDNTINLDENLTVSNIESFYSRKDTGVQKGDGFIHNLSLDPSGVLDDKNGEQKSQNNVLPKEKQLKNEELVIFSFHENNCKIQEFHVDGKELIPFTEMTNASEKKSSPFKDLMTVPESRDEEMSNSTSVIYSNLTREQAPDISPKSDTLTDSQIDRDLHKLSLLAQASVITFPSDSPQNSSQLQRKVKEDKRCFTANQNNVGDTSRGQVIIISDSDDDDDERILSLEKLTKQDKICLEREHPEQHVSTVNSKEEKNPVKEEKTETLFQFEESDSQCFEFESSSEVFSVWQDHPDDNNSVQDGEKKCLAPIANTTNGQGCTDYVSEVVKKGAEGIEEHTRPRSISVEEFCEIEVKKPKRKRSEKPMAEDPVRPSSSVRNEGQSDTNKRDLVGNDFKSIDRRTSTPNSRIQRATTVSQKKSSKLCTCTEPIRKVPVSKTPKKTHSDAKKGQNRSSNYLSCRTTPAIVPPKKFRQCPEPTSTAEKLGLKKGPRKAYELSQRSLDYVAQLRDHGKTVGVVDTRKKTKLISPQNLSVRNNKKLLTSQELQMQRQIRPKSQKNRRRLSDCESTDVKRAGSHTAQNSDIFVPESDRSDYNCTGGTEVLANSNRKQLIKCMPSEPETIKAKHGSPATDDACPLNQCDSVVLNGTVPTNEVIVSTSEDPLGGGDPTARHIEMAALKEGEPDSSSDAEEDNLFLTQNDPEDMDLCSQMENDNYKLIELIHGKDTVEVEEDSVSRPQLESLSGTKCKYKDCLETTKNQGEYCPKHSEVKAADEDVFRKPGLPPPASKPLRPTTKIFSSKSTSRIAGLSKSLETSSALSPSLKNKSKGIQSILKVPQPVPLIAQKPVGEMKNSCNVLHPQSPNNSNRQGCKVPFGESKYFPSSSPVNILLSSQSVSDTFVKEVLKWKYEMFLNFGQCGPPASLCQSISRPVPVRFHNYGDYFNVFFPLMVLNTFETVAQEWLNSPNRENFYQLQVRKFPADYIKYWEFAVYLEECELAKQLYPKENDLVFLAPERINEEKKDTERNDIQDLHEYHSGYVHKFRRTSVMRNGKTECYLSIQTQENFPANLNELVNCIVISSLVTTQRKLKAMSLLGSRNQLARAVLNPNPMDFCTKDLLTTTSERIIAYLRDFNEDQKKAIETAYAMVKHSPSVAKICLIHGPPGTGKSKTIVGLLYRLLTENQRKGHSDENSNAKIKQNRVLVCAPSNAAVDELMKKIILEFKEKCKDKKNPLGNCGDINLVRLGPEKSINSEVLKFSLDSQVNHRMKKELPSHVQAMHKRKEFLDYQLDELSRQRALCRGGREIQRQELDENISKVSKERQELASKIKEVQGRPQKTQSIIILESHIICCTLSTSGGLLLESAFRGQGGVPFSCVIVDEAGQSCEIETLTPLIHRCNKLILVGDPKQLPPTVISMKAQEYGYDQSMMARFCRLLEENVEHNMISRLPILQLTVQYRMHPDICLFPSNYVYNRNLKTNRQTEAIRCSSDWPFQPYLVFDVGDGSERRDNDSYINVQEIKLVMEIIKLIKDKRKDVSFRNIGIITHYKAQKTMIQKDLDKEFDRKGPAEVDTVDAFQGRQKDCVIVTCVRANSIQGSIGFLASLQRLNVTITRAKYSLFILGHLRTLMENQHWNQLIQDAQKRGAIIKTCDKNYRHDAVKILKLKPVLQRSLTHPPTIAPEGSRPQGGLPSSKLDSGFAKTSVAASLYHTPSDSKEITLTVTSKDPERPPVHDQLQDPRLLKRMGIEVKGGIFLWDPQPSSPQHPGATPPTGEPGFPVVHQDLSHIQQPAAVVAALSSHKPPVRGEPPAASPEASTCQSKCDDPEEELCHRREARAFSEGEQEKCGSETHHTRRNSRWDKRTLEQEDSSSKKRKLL
UniProt Q13148: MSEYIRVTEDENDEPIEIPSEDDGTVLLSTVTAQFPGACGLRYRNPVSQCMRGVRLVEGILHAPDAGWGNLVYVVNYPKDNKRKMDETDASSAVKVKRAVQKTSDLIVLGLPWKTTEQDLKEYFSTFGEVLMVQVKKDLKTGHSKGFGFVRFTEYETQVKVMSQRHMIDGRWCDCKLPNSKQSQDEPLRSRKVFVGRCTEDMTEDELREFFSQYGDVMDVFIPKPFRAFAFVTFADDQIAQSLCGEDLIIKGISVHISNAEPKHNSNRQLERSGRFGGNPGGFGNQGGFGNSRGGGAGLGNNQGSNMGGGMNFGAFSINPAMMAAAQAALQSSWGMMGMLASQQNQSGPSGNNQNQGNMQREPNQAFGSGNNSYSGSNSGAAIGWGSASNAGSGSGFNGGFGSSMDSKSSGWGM
UniProt O14744: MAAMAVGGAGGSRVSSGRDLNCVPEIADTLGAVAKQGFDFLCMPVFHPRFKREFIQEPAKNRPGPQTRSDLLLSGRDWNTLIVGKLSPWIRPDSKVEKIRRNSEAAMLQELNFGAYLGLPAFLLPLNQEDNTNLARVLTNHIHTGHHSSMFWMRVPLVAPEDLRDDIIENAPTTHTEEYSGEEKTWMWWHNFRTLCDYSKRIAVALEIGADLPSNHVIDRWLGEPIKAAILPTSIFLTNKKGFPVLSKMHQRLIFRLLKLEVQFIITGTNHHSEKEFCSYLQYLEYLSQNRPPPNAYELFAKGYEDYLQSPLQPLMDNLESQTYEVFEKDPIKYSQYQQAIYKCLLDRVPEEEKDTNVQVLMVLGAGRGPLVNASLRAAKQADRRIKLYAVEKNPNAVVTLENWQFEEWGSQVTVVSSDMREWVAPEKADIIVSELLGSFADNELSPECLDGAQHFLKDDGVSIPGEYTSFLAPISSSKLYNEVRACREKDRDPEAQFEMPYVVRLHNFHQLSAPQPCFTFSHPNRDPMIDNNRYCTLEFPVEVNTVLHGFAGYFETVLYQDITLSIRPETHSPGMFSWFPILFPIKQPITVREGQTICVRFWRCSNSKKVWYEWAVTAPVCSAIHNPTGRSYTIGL
UniProt Q16637: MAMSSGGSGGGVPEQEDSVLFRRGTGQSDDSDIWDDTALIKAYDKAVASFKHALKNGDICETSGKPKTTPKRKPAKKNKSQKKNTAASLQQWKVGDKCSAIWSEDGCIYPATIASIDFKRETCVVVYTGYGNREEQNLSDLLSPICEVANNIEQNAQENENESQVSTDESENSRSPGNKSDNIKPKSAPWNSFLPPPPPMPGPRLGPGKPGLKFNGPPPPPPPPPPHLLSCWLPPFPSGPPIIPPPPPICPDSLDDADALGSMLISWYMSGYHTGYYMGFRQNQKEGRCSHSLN
UniProt P35637: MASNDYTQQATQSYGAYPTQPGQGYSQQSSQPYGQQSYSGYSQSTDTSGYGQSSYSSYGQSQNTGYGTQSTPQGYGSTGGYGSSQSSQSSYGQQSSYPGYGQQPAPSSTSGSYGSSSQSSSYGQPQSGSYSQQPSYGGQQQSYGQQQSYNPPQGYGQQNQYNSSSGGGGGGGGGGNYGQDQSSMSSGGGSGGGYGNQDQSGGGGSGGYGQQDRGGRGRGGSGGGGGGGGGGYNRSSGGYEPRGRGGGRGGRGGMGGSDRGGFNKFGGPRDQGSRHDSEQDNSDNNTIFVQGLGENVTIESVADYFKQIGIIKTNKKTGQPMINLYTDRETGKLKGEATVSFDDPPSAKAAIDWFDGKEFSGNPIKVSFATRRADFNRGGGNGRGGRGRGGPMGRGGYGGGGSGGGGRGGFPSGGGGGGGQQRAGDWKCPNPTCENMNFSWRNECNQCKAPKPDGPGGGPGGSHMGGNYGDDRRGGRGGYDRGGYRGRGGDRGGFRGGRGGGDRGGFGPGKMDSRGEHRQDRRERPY

What was measured:
Assay in all cases: co-IP
[1] = target: T1, XRN2 (human (endogenous in HEK293)) (UniProt Q9H0D6)
T1 sequence: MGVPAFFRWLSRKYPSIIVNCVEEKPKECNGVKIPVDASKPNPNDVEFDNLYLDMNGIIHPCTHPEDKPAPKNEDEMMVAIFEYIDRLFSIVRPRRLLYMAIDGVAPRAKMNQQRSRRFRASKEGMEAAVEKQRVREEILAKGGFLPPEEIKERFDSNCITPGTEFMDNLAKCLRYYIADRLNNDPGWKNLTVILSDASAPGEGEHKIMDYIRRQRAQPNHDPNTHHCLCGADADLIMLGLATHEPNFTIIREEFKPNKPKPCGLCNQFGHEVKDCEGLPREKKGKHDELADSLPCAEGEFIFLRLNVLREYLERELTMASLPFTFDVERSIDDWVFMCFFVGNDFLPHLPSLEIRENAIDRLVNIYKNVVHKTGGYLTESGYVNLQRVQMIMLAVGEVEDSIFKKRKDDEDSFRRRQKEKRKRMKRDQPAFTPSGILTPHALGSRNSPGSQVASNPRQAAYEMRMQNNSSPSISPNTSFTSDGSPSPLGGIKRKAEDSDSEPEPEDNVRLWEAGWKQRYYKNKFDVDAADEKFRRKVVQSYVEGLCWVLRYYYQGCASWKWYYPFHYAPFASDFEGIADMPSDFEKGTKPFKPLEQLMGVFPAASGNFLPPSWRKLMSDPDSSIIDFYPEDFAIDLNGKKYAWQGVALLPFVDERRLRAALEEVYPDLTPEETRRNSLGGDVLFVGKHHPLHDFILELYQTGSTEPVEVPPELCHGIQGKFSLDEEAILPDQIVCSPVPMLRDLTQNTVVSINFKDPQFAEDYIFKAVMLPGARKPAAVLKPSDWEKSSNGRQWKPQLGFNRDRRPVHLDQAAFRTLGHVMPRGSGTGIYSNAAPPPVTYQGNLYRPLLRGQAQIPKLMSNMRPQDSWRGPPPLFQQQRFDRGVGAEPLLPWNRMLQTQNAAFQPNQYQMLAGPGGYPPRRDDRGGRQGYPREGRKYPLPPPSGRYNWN

[2] = target: Senataxin (SETX) (human (endogenous in HEK293)) (UniProt Q7Z333)
[3] = target: TDP-43 (TARDBP) (human (endogenous in HEK293 and Raji)) (UniProt Q13148)
[4] = target: PRMT5 (human (endogenous in HEK293)) (UniProt O14744)
[5] = target: SMN (human (endogenous in HEK293)) (UniProt Q16637)

With FUS (from UniProt P35637 1-526) as the substance, how does the binding [1] read?
Its binding is “binds”.

What about the binding [2] of the same substance?
The binding was “binds”.

What about the binding [3] of the same substance?
The binding was “binds”.

What about the binding [4] of the same substance?
The binding was “binds”.

And the binding [5]?
Its binding is “binds”.

How did the binding [4] turn out when SMN (from UniProt Q16637 1-294) was run?
The binding was “binds”.

Which results are given for “Senataxin (SETX) (from UniProt Q7Z333 1-2677)”?
binding [1]: binds; binding [4]: binds; binding [5]: binds

Which results are given for “TDP-43 (TARDBP) (from UniProt Q13148-1 1-414)”?
binding [1]: binds; binding [4]: binds
